The values that follow come from PMC11915864.

The chains behind the UniProt entries cited, without tags or fusion partners.
UniProt Q5ZLS3: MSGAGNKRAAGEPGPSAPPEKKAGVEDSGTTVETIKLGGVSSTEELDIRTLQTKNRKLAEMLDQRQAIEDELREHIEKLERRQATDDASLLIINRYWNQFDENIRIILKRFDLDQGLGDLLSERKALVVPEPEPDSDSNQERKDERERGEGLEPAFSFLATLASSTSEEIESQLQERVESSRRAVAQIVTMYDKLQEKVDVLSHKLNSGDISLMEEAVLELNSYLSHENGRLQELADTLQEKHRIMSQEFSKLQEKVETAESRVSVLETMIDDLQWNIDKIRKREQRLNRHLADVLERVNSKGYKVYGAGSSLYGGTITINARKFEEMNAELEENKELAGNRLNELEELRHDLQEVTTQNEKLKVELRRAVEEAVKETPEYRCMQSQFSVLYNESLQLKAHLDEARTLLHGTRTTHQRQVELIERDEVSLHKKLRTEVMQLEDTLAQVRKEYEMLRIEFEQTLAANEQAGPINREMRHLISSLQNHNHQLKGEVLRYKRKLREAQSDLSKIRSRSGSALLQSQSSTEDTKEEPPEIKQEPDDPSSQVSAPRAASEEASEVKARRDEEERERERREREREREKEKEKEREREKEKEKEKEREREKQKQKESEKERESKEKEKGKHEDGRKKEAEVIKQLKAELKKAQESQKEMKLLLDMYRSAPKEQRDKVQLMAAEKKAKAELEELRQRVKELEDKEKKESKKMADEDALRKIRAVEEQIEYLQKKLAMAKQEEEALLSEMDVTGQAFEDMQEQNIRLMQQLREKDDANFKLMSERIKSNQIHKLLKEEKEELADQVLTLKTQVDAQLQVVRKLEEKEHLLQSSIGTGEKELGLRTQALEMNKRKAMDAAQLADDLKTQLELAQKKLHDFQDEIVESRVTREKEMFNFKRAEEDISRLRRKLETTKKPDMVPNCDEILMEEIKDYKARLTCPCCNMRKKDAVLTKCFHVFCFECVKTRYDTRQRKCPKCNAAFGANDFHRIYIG

No constants are given. Whether binding was seen depends on the method and setting. Binding seen in cells or lysates may run through a third protein. Some binding calls cover weakened binding; strength is not graded here. Sequences can lack the tags named with a protein.

The target in this experiment is T1, chicken MDA5 (melanoma differentiation-associated gene 5), Flag-tagged (chicken) (UniProt D9N195).
T1 sequence: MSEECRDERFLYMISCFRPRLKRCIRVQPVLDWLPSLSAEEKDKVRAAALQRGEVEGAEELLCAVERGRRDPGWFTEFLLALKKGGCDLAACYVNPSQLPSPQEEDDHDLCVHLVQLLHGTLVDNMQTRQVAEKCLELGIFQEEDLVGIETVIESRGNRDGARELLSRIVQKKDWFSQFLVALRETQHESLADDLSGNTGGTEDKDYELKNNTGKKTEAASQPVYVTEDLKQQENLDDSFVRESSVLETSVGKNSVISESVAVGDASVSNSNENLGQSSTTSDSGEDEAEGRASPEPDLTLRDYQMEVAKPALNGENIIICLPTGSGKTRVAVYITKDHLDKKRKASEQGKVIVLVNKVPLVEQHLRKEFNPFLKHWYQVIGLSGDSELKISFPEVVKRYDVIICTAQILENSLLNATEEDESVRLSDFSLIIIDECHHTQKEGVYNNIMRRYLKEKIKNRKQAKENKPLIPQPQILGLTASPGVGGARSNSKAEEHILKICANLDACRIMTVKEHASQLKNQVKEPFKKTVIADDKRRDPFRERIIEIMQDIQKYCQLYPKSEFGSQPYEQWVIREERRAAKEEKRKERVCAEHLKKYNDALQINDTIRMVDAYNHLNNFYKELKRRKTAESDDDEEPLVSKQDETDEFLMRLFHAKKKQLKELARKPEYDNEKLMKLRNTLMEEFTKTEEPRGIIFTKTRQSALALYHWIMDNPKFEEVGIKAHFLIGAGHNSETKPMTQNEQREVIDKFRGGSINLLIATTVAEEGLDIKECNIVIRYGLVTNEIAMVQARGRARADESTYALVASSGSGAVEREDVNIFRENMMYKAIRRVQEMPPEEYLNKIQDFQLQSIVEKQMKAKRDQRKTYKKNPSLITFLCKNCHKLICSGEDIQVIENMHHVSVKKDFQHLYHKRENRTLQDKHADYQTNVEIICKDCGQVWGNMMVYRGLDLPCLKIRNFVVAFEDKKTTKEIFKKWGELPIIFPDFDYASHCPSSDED
Briefly: co-IP; HEK293T cells co-transfected with RNF20-EGFP and MDA5-Flag (1000 ng/well, six-well plates); lysates precipitated with Flag antibodies on protein G magnetic beads, then immunoblotting; IP buffer 50 mM Tris pH 7.4, 150 mM NaCl, 1% NP-40, 0.5% sodium deoxycholate, 0.1% SDS. A general note: Immunoblotting shows a protein as a band on a membrane.

As to “chicken E3 ubiquitin ligase Ring Finger Protein 20 (RNF20), EGFP-tagged (from UniProt Q5ZLS3 1-984) (enzyme)”, the binding result is recorded as “binds”.
